This test concerns the target HCCR-2 protooncogene protein product (human). The test is described as follows: yeast two-hybrid as stated; no HCCR-2 experiment described.

Results are given in words; binding and its absence hold for the method and conditions named. A result given as binding can be weak or reduced; the word gives no strength.

B1: KG-19 protein (protein, not shown: large carriers)
chain: MFVETLWKVWTELLDVLGLDVSNLSQYFSPASVSSSPARALLLVGVVLLAYWFLSLTLGFTFSVLHVVFGRFFWIVRVVLFSMSCVYILHKYEGEPENAVLPLCFVVAVYFMTGPMGFYWRSSPSGPSNPSNPSVEEKLEHLEKQVRLLNIRLNRVLESLDRSKDK
For the molecule B1, the binding result is recorded as “binds”.

(Values after US20040077029A1.)
